Measured values as given in PMC12040169 (PLOS Biology, 2025).
The list shows a part of the results.

Test system: T1, CTL2-GFP (C. trachomatis L2/434/Bu, GFP-expressing)
T1 construct: L2/434/Bu, GFP-expressing
Parameters: species or system HeLa; Intracellular C. trachomatis growth in HeLa cells, bulk GFP fluorescence relative to DMSO
Conditions: bulk GFP, single well; 28.5 h, 10 µM; inhibitor

Going from `c1cncc(Nc2cccc(-c3cnc4ccccc4c3)n2)c1` [CBK037638] to `O=C(COc1cccc2ccccc12)Nc1cccnc1` [CBK263015], the “% of control remaining” value falls from 129.085% to 94.5364%.

Going from `CC1(C)CC(N2CNC(=N)N(C#N)C2)CC(C)(C)N1` [CBK262008] to `Cc1ccc2c(c1)OC(C)(C)CC2NC(=O)C1CCN(C)CC1` (stereo not shown) [CBK307626], the “% of control remaining” value rises from 103.269% to 106.985%.

Compared with `COc1ccc(C(=O)Nc2nnc(C3=COCCO3)o2)cc1` [CBK287409], `COc1cc(-c2nnc(NC(=O)c3ccc(C)cc3)o2)cc(OC)c1OC` [CBK287699] is lower in “% of control remaining” value: 156.757% for the first, 119.913% for the second.

Compared with `CC(=O)N1CCN(C[C@@H]2C=C(C)[C@H](Cc3nnc(C(C)(C)C)o3)C[C@H]2C(C)C)CC1` [CBK289221], `CC(C)C[C@H](NC(=O)OC(C)(C)C)C(=O)N1CCC(C(=O)O)CC1` [CBK286742] is higher in “% of control remaining” value: 137.432% for the first, 139.75% for the second.

First: CC1CCc2nc(NC(=O)Cn3cc(C(=O)Nc4ccc(F)cc4)ccc3=O)sc2C1 (stereo not shown) [CBK286053]
Second: Cc1nc(C(=O)NC2CC(=O)N(CCc3ccc(F)cc3)C2)cs1 (stereo not shown) [CBK307473]
The “% of control remaining” value of the first is lower: 134.208% for the first, 150.205% for the second.

Compared with `Cc1cc(C)cc(CNC(=O)NCCc2cccs2)c1` [CBK043459], `O=C(/C=C\c1cccs1)NC(=S)Nc1ccc([N+](=O)[O-])cc1O` [CBK261231] is lower in “% of control remaining” value: 151.783% for the first, 103.291% for the second.

First: Cc1cc(NC(=O)CN2CCC(Cc3ccccc3)CC2)nc2c1c(=O)oc1ccccc12 [CBK291261]
Second: C=CCn1c2ccccc2c2nnc(SCC(=O)Nc3c(C)n(C)n(-c4ccccc4)c3=O)nc21 [CBK263892]
The “% of control remaining” value of the first is higher: 139.873% for the first, 137.173% for the second.

Compared with `O=C(CC(NC1CCCCC1)C(=O)O)Nc1cccc(Cl)c1` (stereo not shown) [CBK266916], `Cc1ccc2c(CC(=O)N3CCC(C(=O)O)CC3)coc2c1` [CBK286711] is lower in “% of control remaining” value: 141.17% for the first, 119.849% for the second.

Going from `O=C(CNS(=O)(=O)Cc1ccccc1[N+](=O)[O-])N1CCOCC1` [CBK042220] to `CCOC(=O)N1CCC(NS(=O)(=O)c2ccc(C)c([N+](=O)[O-])c2)CC1` [CBK045468], the “% of control remaining” value falls from 121.298% to 113.438%.

Going from `Cc1ccc2c(c1)cc(C)c1nn(CC(=O)NC(C)(C)C)c(=O)n12` [CBK283875] to `Cc1ccc(C)c(S(=O)(=O)NCC(=O)Nc2nsc(-c3ccccc3)n2)c1` [CBK267304], the “% of control remaining” value falls from 115.108% to 91.2908%.

First: COc1ccc(-c2nnc(SCC(=O)c3ccc(C)o3)o2)cc1 [CBK268334]
Second: COc1ccc2oc(-c3ccc(NC(=O)c4cccc5ccccc45)cc3)nc2c1 [CBK267610]
The “% of control remaining” value of the first is higher: 110.998% for the first, 84.5451% for the second.

Going from `C=CCN(c1ccccc1)S(=O)(=O)c1ccc(C(C)(C)CC)cc1` [CBK200036] to `CSc1nsc(SCC(=O)N(c2ccccc2)c2ccccc2)n1` [CBK269361], the “% of control remaining” value rises from 112.041% to 145.654%.

First: O=C1CN(Cc2ccc3ccccc3n2)CCN1C1CCCC1 [CBK281961]
Second: Cc1nnc(SCc2cc(=O)[nH]c(N3CCN(Cc4ccccc4)CC3)n2)s1 [CBK268837]
The “% of control remaining” value of the first is lower: 88.4772% for the first, 171.642% for the second.

First: O=C(NCc1cccc(C(F)(F)F)c1)c1cnoc1-c1ccc(Br)cc1 [CBK153718]
Second: O=C(NCc1ccc2c(c1)CCN2C(=O)c1ccncc1)c1cccnc1 [CBK288585]
The “% of control remaining” value of the first is higher: 118.629% for the first, 92.6178% for the second.

First: O=c1[nH]cc(S(=O)(=O)N2CCN(Cc3ccccc3Cl)CC2)c(=O)[nH]1 [CBK285889]
Second: O=C(CSCc1cccc2ccccc12)Nc1c[nH]c(=O)[nH]c1=O [CBK268500]
The “% of control remaining” value of the first is lower: 119.335% for the first, 131.598% for the second.

Compared with `CC(C)C(=O)Nc1ccc(Oc2ccc(C(=O)O)c(C(=O)O)c2)cc1` [CBK263463], `O=C(O)c1ccc(NC(=O)c2cc(-n3cnnc3)ccc2Cl)cc1` [CBK286613] is lower in “% of control remaining” value: 100% for the first, 79.8507% for the second.

First: O=C(CSCc1ccc(Cl)cc1)Nc1ccc(S(=O)(=O)N2CCCCCC2)cc1 [CBK267017]
Second: O=S(=O)(c1ccc(NC(=S)NCc2cccnc2)cc1)N1CCOCC1 [CBK268396]
The “% of control remaining” value of the first is lower: 46.8711% for the first, 119.606% for the second.

Going from `Cc1ccc(C2NS(=O)(=O)NC2=N)cc1` (stereo not shown) [CBK263848] to `Cc1cc(=O)nc(N/C(N)=N/c2cccc([N+](=O)[O-])c2)[nH]1` [CBK264857], the “% of control remaining” value falls from 109.992% to 94.3675%.

Compared with `CC1Cc2ccccc2N1C(=O)Cn1c(=O)n(C)c2ncccc21` (stereo not shown) [CBK283793], `O=C(O)Cn1nc(-c2ccccc2)c2ccccc2c1=O` [CBK287249] is lower in “% of control remaining” value: 122.908% for the first, 104.311% for the second.

Compared with `O=C(Nc1ccccc1N1CCCNCC1)c1ccnc2ccccc12` [CBK036325T], `O=[N+]([O-])c1ccccc1N/N=C/c1c[nH]c2ccccc12` [CBK261679] is lower in “% of control remaining” value: 116.283% for the first, 100% for the second.

Compared with `COc1cc(OC)cc(C(=O)Nc2ncccc2OCCCC#N)c1` [CBK304899], `COc1ccc(C(NC(=O)c2cccc(OC)c2)c2cc(Cl)c3cccnc3c2O)cc1` (stereo not shown) [CBK264027] is lower in “% of control remaining” value: 154.315% for the first, 100% for the second.

First: CS(=O)(=O)N(CC(=O)N1CCN(Cc2ccc3c(c2)OCO3)CC1)c1cccc(F)c1 [CBK074572]
Second: Cc1cccc(C)c1N1CCN(CC(O)COc2ccc3c(C)cc(=O)oc3c2)CC1 (stereo not shown) [CBK270084]
The “% of control remaining” value of the first is lower: 91.2691% for the first, 152.865% for the second.

Compared with `COCC(=O)N1CC[C@H](c2nnc(-c3ccncc3)o2)C1` [CBK289413], `CSc1nc(C(=O)NC2CCCN(c3ncccn3)C2)cs1` (stereo not shown) [CBK307198] is lower in “% of control remaining” value: 131.005% for the first, 83.0941% for the second.

First: Cc1nc2c(c(C)c1CC(=O)NCc1cccc(C#N)c1)c(=O)[nH]n2C [CBK304959]
Second: Cc1c(C)n(Cc2ccco2)c2ncnc(NC(C)C(=O)O)c12 (stereo not shown) [CBK307561]
The “% of control remaining” value of the first is higher: 128.012% for the first, 93.2935% for the second.

First: COc1ccc(C(=O)CCC(=O)Nc2cccnc2)c(OC)c1 [CBK266923]
Second: COc1cc(OC)c(NC(=O)CSc2ccccn2)cc1Cl [CBK267303]
The “% of control remaining” value of the first is lower: 133.626% for the first, 138.095% for the second.

Compared with `COc1ccc(CC(=O)N2CCC[C@@H](N)[C@@H]2c2ccccc2F)cc1` [CBK283456], `COc1ccc(CO)cc1OCc1ccccc1` [CBK051334] is higher in “% of control remaining” value: 118.984% for the first, 130.162% for the second.

Going from `CSc1ccc(NS(=O)(=O)c2ccc(NC(C)=O)c(Cl)c2)cc1` [CBK043566] to `CC(=O)N(C)c1nc(-c2cccc(N(C)C)c2)ccc1C(=O)NCCc1ccc(S(N)(=O)=O)cc1` [CBK076578], the “% of control remaining” value rises from 93.1095% to 123.411%.

Compared with `COc1ccc(CCNC(=O)CC2Sc3ccc(C(F)(F)F)cc3NC2=O)cc1OC` (stereo not shown) [CBK265341], `COC(=O)C(Nc1cccc(Cl)c1)(c1cc(OC)c(O)c(OC)c1)C(F)(F)F` (stereo not shown) [CBK009591] is higher in “% of control remaining” value: 91.4963% for the first, 109.506% for the second.

First: O=C(NCCCO)c1cc2ccccc2[nH]1 [CBK267638]
Second: CC1(c2ccccc2)CC(=O)N(CCC(=O)O)C1=O (stereo not shown) [CBK287091]
The “% of control remaining” value of the first is higher: 133.498% for the first, 112.883% for the second.

First: CCc1ccc(-c2cnccc2-n2ccnc2)cc1 [CBK177151]
Second: Fc1ccc(-c2ccc(CNCc3ccncc3)o2)cc1 [CBK270158C]
The “% of control remaining” value of the first is higher: 155.771% for the first, 125.586% for the second.

Compared with `O=C(C1=C(O)C(=O)N(CCCn2ccnc2)C1c1cccs1)c1ccc2c(c1)OCCO2` (stereo not shown) [CBK266170], `O=C(Nc1ccc2ncccc2c1)c1ccoc1` [CBK159823] is lower in “% of control remaining” value: 147.177% for the first, 116.689% for the second.

Compared with `CN(C)CCNc1ncnc2sc3c(c12)CCC3` [CBK265347], `O=C1CCCN1CCCNc1nccnc1-c1cccnc1` [CBK089246] is higher in “% of control remaining” value: 100% for the first, 154.312% for the second.

First: OCCOc1cccnc1OCC1CC1 [CBK001461]
Second: COc1ccc(Nc2cc(Cl)ccc2C(=O)N2CCN(c3ncccn3)CC2)cn1 [CBK107334]
The “% of control remaining” value of the first is lower: 121.08% for the first, 125.024% for the second.

Compared with `CCCn1c(SCC(=O)Nc2cc(C(C)(C)C)no2)n[nH]c1=O` [CBK295648], `Cc1nc(N2CCCCC2)ncc1C(=O)NCCSc1nncn1C` [CBK306955] is higher in “% of control remaining” value: 149.213% for the first, 182.304% for the second.

Going from `Cc1cc(-c2c(C)n(-c3ccccc3)[nH]c2=O)n2ncnc2n1` [CBK288441] to `CCOC(=O)c1c(C)n(-c2ccccc2)c2ccc(O)c(CN(C)C)c12` [CBK261593C], the “% of control remaining” value falls from 136.923% to 51.5655%.

Going from `COc1ccc(C(C)C)cc1-c1cc2ncccc2nc1N` [CBK081202] to `CC(Cn1cccn1)NCc1cn(C)c2cc(F)ccc12` (stereo not shown) [CBK282220], the “% of control remaining” value rises from 103.488% to 131.624%.

First: O=C(c1ccc(CO)o1)N1CCn2cc(C(F)(F)F)nc2C1 [CBK283914]
Second: FC(F)(F)c1ccc(CN2CCCC3(C2)NCCc2c3[nH]c3ccccc23)cc1 (stereo not shown) [CBK040095]
The “% of control remaining” value of the first is higher: 128.061% for the first, 98.8497% for the second.

Going from `N#CCCN(Cc1cccnc1)C(=O)Cc1noc2ccccc12` [CBK304001] to `CCCC/C=C/c1nccnc1N(C)Cc1ccccc1` [CBK037412], the “% of control remaining” value rises from 84.1328% to 173.468%.

Going from `Cn1cc([C@H]2C[C@@H](O)[C@@H](CO)O2)c(=O)n(C)c1=O` [CBK201272] to `CC(C)[C@@]1(C)SC(N[C@H]2C[C@H]3C[C@@H]2C[C@@H]3O)=NC1=O` [CBK138400], the “% of control remaining” value falls from 182.914% to 116.114%.

For `CC(C)N1CCc2c(sc3nc(SCc4ccc(Cl)cc4)n(Cc4ccccc4)c(=O)c23)C1` [CBK263745], the “% of control remaining” value was 106.271%.
